From publication PMC6597547

By UniProt entry, the sequences of proteins in these tests, tags left out. Residues count along the entry.
UniProt Q9FI56, residues 39-929: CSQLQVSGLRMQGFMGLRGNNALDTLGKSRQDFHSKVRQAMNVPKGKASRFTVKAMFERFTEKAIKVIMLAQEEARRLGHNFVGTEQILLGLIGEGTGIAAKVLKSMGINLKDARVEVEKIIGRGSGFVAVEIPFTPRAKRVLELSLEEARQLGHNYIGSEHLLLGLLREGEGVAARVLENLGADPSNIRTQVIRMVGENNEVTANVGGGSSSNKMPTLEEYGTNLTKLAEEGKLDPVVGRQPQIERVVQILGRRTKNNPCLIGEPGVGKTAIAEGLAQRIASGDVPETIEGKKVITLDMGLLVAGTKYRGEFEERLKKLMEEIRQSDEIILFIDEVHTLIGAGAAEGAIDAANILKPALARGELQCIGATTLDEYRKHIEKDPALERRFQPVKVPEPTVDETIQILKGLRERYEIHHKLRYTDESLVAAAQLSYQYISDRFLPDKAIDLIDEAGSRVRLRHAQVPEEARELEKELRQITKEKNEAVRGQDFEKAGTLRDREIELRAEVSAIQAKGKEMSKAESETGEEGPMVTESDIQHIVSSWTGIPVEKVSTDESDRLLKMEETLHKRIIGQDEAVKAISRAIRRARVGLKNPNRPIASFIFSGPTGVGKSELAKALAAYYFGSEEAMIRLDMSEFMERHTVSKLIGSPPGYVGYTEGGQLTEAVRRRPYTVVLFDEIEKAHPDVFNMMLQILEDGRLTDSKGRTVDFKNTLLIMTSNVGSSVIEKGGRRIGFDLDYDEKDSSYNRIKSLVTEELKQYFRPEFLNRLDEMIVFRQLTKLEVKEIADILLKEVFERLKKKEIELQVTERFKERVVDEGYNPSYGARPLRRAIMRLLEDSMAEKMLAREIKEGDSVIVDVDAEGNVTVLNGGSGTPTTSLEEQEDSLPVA

The substances below were run against T1, EXECUTER1 (EX1) fused to GFP (Arabidopsis thaliana) (UniProt Q93YW0) (assay: affinity purification with mass spectrometry; GFP-Trap enriched EX1-GFP and associated proteins from dark- or continuous-light-grown seedlings; eluted with 6 M guanidine hydrochloride, trypsin digest, LC-MS/MS (Q Exactive), Mascot search).
T1 sequence: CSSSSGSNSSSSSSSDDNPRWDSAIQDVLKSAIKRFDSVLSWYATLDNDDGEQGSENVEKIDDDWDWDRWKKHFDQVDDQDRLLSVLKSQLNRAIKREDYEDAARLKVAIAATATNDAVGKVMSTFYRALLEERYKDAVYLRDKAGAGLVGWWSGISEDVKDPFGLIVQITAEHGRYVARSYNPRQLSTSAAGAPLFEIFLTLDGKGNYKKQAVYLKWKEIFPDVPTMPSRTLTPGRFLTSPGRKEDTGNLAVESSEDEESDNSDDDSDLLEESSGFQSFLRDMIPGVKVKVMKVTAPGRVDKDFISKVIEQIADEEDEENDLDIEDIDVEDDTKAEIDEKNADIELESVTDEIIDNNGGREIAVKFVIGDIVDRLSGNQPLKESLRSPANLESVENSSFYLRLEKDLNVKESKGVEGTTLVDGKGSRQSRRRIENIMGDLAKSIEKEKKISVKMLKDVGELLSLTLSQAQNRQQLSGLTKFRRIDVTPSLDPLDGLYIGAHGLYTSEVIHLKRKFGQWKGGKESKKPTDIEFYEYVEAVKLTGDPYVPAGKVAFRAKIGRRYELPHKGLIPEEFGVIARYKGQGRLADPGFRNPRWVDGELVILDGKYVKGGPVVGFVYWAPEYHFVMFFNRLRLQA
Hsp70 was tested, and the binding was “binds”. With ClpC1 (from UniProt Q9FI56 39-929) the binding was “binds”. With “light-dependent NADPH:protochlorophyllide oxidoreductase (POR) (enzyme)” the binding was “binds”.

No constants are given. Whether binding was seen depends on the method and setting. Binding seen in cells or lysates may run through a third protein. A yes stands for co-enrichment or nearness to the bait. Other partners may have been found. Tags and fused reporters may be left off the sequences shown.
